The values below come from US20240035082.

The data set concerns Bst 2.0 DNA polymerase. The experiment in a line: BLI. Particulars: purified recombinant protein, label: 5' biotin on template.

Construct, isoform or probe ends are uncertain for at least one entry. The comparison behind a weaker result is the experiment's own reference, which may not be listed here.

Consider “GGCAAATCACCAGAAGGCGGTTCCTGAATGAATGGGAAGCCTTCAAGAAGGTGATAAGCAGGAGAAACATACGAAGGCGCATAACGATACCACTGACCCTC / GAGGGTCAGTGGTATCGTTATG [phiX_matchC/FP2 primer-template]”, for which the binding result (cognate dNTP, 150 mM NaCl, Mg-free, 5/6 bases called) was “binds”. With “GGCAAATCACCAGAAGGCGGTTCCTGAATGAATGGGAAGCCTTCAAGAAGGTGATAAGCAGGAGAAACATACGAAGCATCATAACGATACCACTGACCCTC / GAGGGTCAGTGGTATCGTTATG [phiX_matchA/FP2 primer-template]”, under “noncognate dNTP, simple exponential binding, affinity falls with added NaCl”, the binding result is on record as “binds more weakly”.
